Measured values published in the supplement of paper PMC4604168 (melanoma cell lines).
Some of the results follow. Repeats are few or missing, and single values can be far off.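 The apoptosis fraction was the count of cleaved-PARP antibody-stained nuclei relative to all DNA-stained nuclei, imaged in 1,536-well plates. Screening doses were set so most cells survived, and baseline and induced cleaved-PARP levels vary greatly across cell lines.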

Experiments:
Experiment in all cases: cleaved PARP positive nuclei fraction relative to DMSO control; melanoma cells; higher = more apoptosis
Details in all cases: library dose: low library concentration; 72 h
MZ2-MEL = test system: MZ2-MEL
MeWo = test system: MeWo
RPMI7951 = test system: RPMI7951
RVH-421 = test system: RVH-421
SkMel28 = test system: SkMel28
SkMel2 = test system: SkMel2
SkMel30 = test system: SkMel30
SkMel5 = test system: SkMel5
UACC257 = test system: UACC257
UACC62 = test system: UACC62
WM115 = test system: WM115
WM1716 = test system: WM1716
WM1745 = test system: WM1745
WM3526 = test system: WM3526
WM3619 = test system: WM3619
WM451Lu = test system: WM451Lu

| Compound | cleaved PARP positive nuclei fraction (MZ2-MEL) | cleaved PARP positive nuclei fraction (MeWo) | cleaved PARP positive nuclei fraction (RPMI7951) | cleaved PARP positive nuclei fraction (RVH-421) | cleaved PARP positive nuclei fraction (SkMel28) | cleaved PARP positive nuclei fraction (SkMel2) | cleaved PARP positive nuclei fraction (SkMel30) | cleaved PARP positive nuclei fraction (SkMel5) | cleaved PARP positive nuclei fraction (UACC257) | cleaved PARP positive nuclei fraction (UACC62) | cleaved PARP positive nuclei fraction (WM115) | cleaved PARP positive nuclei fraction (WM1716) | cleaved PARP positive nuclei fraction (WM1745) | cleaved PARP positive nuclei fraction (WM3526) | cleaved PARP positive nuclei fraction (WM3619) | cleaved PARP positive nuclei fraction (WM451Lu) |
| --- | --- | --- | --- | --- | --- | --- | --- | --- | --- | --- | --- | --- | --- | --- | --- | --- |
| O=c1[nH]nc(Sc2ncc([N+](=O)[O-])s2)n1-c1ccc2c(c1)OCCO2 + CO[C@@H]1[C@H](N(C)C(=O)c2ccccc2)C[C@H]2O[C@]1(C)n1c3ccccc3c3c4c(c5c6ccccc6n2c5c31)C(=O)NC4 [Midostaurin] (first compound 0.2 µM, partner dose 0.08 µM) | 43.5% | 71.2% | 137% | 130% | 187% | 39.8% | 28.2% | 17.4% | 369% | 249% | 149% | 177% | 96.9% | 30.6% | 92.8% | 29.9% |
| CC[C@]1(O)C[C@H]2CN(CCc3c([nH]c4ccccc34)[C@@](C(=O)OC)(c3cc4c(cc3OC)N(C=O)[C@H]3[C@@](O)(C(=O)OC)[C@H](OC(C)=O)[C@]5(CC)C=CCN6CC[C@]43[C@@H]65)C2)C1 [vincristine] + Cc1cc([N+](=O)[O-])ccc1NS(=O)(=O)c1cc(Cl)ccc1Cl [FH535] (first compound 0.0001 µM, partner dose 1 µM) | 226% | 245% | 379% | 215% | 187% | 152% | 88% | 88.9% | 399% | 342% | 2070% | 463% | 136% | 150% | 214% | 276% |
| Cc1cn(-c2cc(NC(=O)c3ccc(C)c(Nc4nccc(-c5cccnc5)n4)c3)cc(C(F)(F)F)c2)cn1 [nilotinib] + CC1(C)NC(=O)N(c2ccc([N+](=O)[O-])c(C(F)(F)F)c2)C1=O [nilutamide] (first compound 0.2 µM, partner dose 1 µM) | 98.3% | 54.5% | 137% | 346% | 42.5% | 69.7% | 68.5% | 94.6% | 96.6% | 70.1% | 60.6% | 70.4% | 114% | 180% | 71.3% | 75% |
| Cc1cc(Nc2cc(N3CCN(C)CC3)nc(Sc3ccc(NC(=O)C4CC4)cc3)n2)n[nH]1 [Tozasertib] + Cn1cc(/C=C2\C(=O)Nc3cccnc32)c2ccccc21 [GW441756] (first compound 0.006 µM, partner dose 0.4 µM) | 131% | 171% | 229% | 116% | 131% | 20.7% | 78.5% | 178% | 120% | 94.1% | 142% | 37.7% | 266% | 77.1% | 102% | 296% |
| COc1cc([C@@H]2c3cc4c(cc3[C@@H](O[C@@H]3O[C@@H]5CO[C@@H](C)O[C@H]5[C@H](O)[C@H]3O)[C@H]3COC(=O)[C@H]23)OCO4)cc(OC)c1O [etoposide] + CC1(C)NC(=O)N(c2ccc([N+](=O)[O-])c(C(F)(F)F)c2)C1=O [nilutamide] (first compound 0.02 µM, partner dose 1 µM) | 25.8% | 86.9% | 184% | 170% | 31.4% | 129% | 117% | 241% | 36% | 48.6% | 110% | 99.5% | 95% | 55.3% | 106% | – |
| O=C(/C=C/c1cccnc1)NCCCCC1CCN(C(=O)c2ccccc2)CC1 + O=C(O)c1ccc(-c2c[nH]c3ncc(-c4ccccc4)cc23)cc1C1CCCC1 [GSK650394] (first compound 0.01 µM, partner dose 0.16 µM) | 396% | 60.2% | 140% | 308% | 226% | 452% | 135% | 142% | 134% | 103% | 413% | 168% | 102% | 64.5% | 115% | 116% |
| O=C(/C=C/c1cccnc1)NCCCCC1CCN(C(=O)c2ccccc2)CC1 + COc1ccc(COc2ccc(Cc3cnc(N)nc3N)cc2OC)cc1 [GW2580] (first compound 0.01 µM, partner dose 1 µM) | 654% | 80.2% | 99.7% | 113% | 31.4% | 1260% | 78.4% | 92% | 8.78% | 309% | 36.3% | 43.2% | 83.2% | 136% | 110% | 73.7% |
| O=C(Nc1cc(C(F)(F)F)cc(C(F)(F)F)c1)c1cc(Cl)ccc1O + CCN(CC)CCCCNc1ncc2cc(-c3cc(OC)cc(OC)c3)c(NC(=O)NC(C)(C)C)nc2n1 [PD173074] (first compound 0.016 µM, partner dose 0.1 µM) | 88.3% | 46.3% | 79.2% | 49.8% | 104% | 129% | 39.7% | 136% | 127% | 86.6% | 43.2% | 44.1% | 80.4% | 65.6% | 76.6% | 103% |
| O=C(/C=C/c1cccnc1)NCCCCC1CCN(C(=O)c2ccccc2)CC1 + COC(=O)c1sccc1S(=O)(=O)Nc1ccc(Nc2ccccc2)cc1OC [GSK0660] (first compound 0.01 µM, partner dose 1 µM) | 1120% | 65.9% | 65.8% | 78.4% | 134% | 1080% | 50.4% | 88% | 27.7% | 94.5% | 302% | 54.4% | 80.8% | 56.8% | 111% | 71.1% |
